Measurements taken from PubChem BioAssay AID248 (DTP/NCI, 2004).
The list shows only some results of the screen, not a fair sample: it is rich in T/C values a quarter to a half above the control, in often repeated tests (any T/C) and in doses without a T/C. Other doses and runs of a compound stand elsewhere. T/C is the treated group as % of the vehicle group. Some doses have a count of surviving animals in place of a T/C: the source files T/C as zero there, which appears to mark a toxic dose or a test without result, not a measured value. Some survivor counts are full or nearly so, which does not show that the dose was tolerated: survival well below the control is almost never listed, so the zero probably covers shortened survival too. Counts of survivors are from the toxicity check (mostly the fifth day) where no day follows; animals may have died later. Schedules are NCI's codes, taken here to give the interval after Q, in days (D) or hours (H), and the number of doses after X. Some schedules carry Z or #; the key to these is not given.

Test system: L1210 leukemia ip in BDF1 mice, survival T/C
Assay: NCI In Vivo Anticancer Drug Screen. Data for tumor model L1210 Leukemia (intraperitoneal) in B6D2F1 (BDF1) mice
Conditions: T/C endpoint: mean survival time, higher T/C = longer survival
[1] = dose: 100.0 mg/kg/injection, schedule: Q04DX003 (ip), vehicle: saline with Tween-80
[2] = dose: 200.0 mg/kg/injection, schedule: Q04DX003 (ip), vehicle: saline with Tween-80
[3] = dose: 400.0 mg/kg/injection, schedule: Q04DX003 (ip), vehicle: saline with Tween-80
[4] = dose: 100.0 mg/kg/injection, schedule: Q01DX001 (ip), vehicle: carboxymethylcellulose (CMC)

O=C(/C(=C\c1ccccc1)CBr)c1ccc(Br)cc1
survivor count (dose: 25.0 mg/kg/injection, schedule: Q01DX009 (ip), vehicle: saline): 6 of 6
survivor count (dose: 50.0 mg/kg/injection, schedule: Q01DX009 (ip), vehicle: saline): 3 of 6
survivor count [1]: 3 of 6
survivor count [2]: 1 of 6
survivor count [3]: 1 of 6

COC1=CC(=O)C2=C(C1=O)C1(C)CCCC(C)(COC(C)=O)C1CC2 (stereo unspecified)
survivor count [4]: 4 of 4

O=C(Nc1cccc(F)c1)Nc1cc(C(F)(F)F)ccc1Cl
survivor count (dose: 200.0 mg/kg/injection, schedule: Q01DX009 (ip), vehicle: saline with Tween-80): 6 of 6

O=[N+]([O-])c1cc(S(=O)(=O)c2ccccc2)ccc1S(=O)(=O)c1ccccc1
survivor count [1]: 6 of 6
survivor count (dose: 200.0 mg/kg/injection, schedule: Q01DX005 (ip), vehicle: saline with Tween-80): 4 of 4
survivor count [2]: 5 of 6
survivor count [3]: 4 of 6

O=C(CBr)c1ccc(S(=O)(=O)c2ccccc2)cc1
survivor count (dose: 40.0 mg/kg/injection, schedule: Q01DX001 (ip), vehicle: carboxymethylcellulose (CMC)): 3 of 4
survivor count (dose: 50.0 mg/kg/injection, schedule: Q01DX001 (ip), vehicle: carboxymethylcellulose (CMC)): 0 of 4
survivor count (dose: 80.0 mg/kg/injection, schedule: Q01DX001 (ip), vehicle: carboxymethylcellulose (CMC)): 0 of 4
survivor count [4]: 0 of 4
survivor count (dose: 200.0 mg/kg/injection, schedule: Q01DX001 (ip), vehicle: carboxymethylcellulose (CMC)): 0 of 4
survivor count (dose: 400.0 mg/kg/injection, schedule: Q01DX001 (ip), vehicle: carboxymethylcellulose (CMC)): 0 of 4

O=C(O)c1ccc(CBr)c(CBr)c1
survivor count (dose: 25.0 mg/kg/injection, schedule: Q04DX003 (ip), vehicle: saline with Tween-80): 6 of 6

CC1(C)C2CCC([CH2][Hg][Cl])C1C2 (stereo unspecified)
survivor count (dose: 40.0 mg/kg/injection, schedule: Q01DX001 (ip), vehicle: Klucel (hydroxypropylcellulose) (HPC)): 0 of 6
survivor count (dose: 80.0 mg/kg/injection, schedule: Q01DX001 (ip), vehicle: Klucel (hydroxypropylcellulose) (HPC)): 0 of 6
survivor count (dose: 100.0 mg/kg/injection, schedule: Q01DX001 (ip), vehicle: Klucel (hydroxypropylcellulose) (HPC)): 0 of 6
survivor count (dose: 100.0 mg/kg/injection, schedule: Q04DX003 (ip), vehicle: other): 0 of 6
survivor count (dose: 200.0 mg/kg/injection, schedule: Q01DX001 (ip), vehicle: Klucel (hydroxypropylcellulose) (HPC)): 0 of 6
survivor count (dose: 200.0 mg/kg/injection, schedule: Q04DX003 (ip), vehicle: other): 1 of 6
survivor count (dose: 400.0 mg/kg/injection, schedule: Q01DX001 (ip), vehicle: Klucel (hydroxypropylcellulose) (HPC)): 0 of 6
survivor count (dose: 400.0 mg/kg/injection, schedule: Q04DX003 (ip), vehicle: other): 0 of 6

C[CH2][Pb]([CH2]C)([CH2]C)[O]C(=O)CBr
survivor count (dose: 6.25 mg/kg/injection, schedule: Q01DX009 (ip), vehicle: Klucel (hydroxypropylcellulose) (HPC)): 5 of 6
survivor count (dose: 12.5 mg/kg/injection, schedule: Q01DX009 (ip), vehicle: Klucel (hydroxypropylcellulose) (HPC)): 4 of 6
survivor count (dose: 25.0 mg/kg/injection, schedule: Q04DX002 (ip), vehicle: Klucel (hydroxypropylcellulose) (HPC)): 2 of 3
survivor count (dose: 50.0 mg/kg/injection, schedule: Q04DX002 (ip), vehicle: Klucel (hydroxypropylcellulose) (HPC)): 0 of 3
survivor count (dose: 100.0 mg/kg/injection, schedule: Q04DX002 (ip), vehicle: Klucel (hydroxypropylcellulose) (HPC)): 1 of 3
survivor count (dose: 200.0 mg/kg/injection, schedule: Q04DX002 (ip), vehicle: Klucel (hydroxypropylcellulose) (HPC)): 0 of 3
survivor count (dose: 400.0 mg/kg/injection, schedule: Q04DX002 (ip), vehicle: Klucel (hydroxypropylcellulose) (HPC)): 0 of 3

CSc1nc(Cl)cc(N2CC2C)n1 (stereo unspecified)
survivor count (dose: 50.0 mg/kg/injection, schedule: Q01DX Z (ip), vehicle: methylcellulose (MC)): 1 of 6
survivor count (dose: 100.0 mg/kg/injection, schedule: Q01DX Z (ip), vehicle: methylcellulose (MC)): 3 of 6
survivor count (dose: 200.0 mg/kg/injection, schedule: Q01DX Z (ip), vehicle: methylcellulose (MC)): 2 of 6
